Patent US7307143 (MAX DELBR CK INSTITUT FUR MOLEKULARE HEDIZIN, dated 2007)
Results are given in words; binding and its absence hold for the method and conditions named. Some entries that bind do so weakly or less than the wild type.

Sequences of proteins named here, by UniProt entry; tags and fusion partners are left off. A change or cut given only in a name is not applied to a line headed by its entry. Residues count along the entry.
UniProt P25054: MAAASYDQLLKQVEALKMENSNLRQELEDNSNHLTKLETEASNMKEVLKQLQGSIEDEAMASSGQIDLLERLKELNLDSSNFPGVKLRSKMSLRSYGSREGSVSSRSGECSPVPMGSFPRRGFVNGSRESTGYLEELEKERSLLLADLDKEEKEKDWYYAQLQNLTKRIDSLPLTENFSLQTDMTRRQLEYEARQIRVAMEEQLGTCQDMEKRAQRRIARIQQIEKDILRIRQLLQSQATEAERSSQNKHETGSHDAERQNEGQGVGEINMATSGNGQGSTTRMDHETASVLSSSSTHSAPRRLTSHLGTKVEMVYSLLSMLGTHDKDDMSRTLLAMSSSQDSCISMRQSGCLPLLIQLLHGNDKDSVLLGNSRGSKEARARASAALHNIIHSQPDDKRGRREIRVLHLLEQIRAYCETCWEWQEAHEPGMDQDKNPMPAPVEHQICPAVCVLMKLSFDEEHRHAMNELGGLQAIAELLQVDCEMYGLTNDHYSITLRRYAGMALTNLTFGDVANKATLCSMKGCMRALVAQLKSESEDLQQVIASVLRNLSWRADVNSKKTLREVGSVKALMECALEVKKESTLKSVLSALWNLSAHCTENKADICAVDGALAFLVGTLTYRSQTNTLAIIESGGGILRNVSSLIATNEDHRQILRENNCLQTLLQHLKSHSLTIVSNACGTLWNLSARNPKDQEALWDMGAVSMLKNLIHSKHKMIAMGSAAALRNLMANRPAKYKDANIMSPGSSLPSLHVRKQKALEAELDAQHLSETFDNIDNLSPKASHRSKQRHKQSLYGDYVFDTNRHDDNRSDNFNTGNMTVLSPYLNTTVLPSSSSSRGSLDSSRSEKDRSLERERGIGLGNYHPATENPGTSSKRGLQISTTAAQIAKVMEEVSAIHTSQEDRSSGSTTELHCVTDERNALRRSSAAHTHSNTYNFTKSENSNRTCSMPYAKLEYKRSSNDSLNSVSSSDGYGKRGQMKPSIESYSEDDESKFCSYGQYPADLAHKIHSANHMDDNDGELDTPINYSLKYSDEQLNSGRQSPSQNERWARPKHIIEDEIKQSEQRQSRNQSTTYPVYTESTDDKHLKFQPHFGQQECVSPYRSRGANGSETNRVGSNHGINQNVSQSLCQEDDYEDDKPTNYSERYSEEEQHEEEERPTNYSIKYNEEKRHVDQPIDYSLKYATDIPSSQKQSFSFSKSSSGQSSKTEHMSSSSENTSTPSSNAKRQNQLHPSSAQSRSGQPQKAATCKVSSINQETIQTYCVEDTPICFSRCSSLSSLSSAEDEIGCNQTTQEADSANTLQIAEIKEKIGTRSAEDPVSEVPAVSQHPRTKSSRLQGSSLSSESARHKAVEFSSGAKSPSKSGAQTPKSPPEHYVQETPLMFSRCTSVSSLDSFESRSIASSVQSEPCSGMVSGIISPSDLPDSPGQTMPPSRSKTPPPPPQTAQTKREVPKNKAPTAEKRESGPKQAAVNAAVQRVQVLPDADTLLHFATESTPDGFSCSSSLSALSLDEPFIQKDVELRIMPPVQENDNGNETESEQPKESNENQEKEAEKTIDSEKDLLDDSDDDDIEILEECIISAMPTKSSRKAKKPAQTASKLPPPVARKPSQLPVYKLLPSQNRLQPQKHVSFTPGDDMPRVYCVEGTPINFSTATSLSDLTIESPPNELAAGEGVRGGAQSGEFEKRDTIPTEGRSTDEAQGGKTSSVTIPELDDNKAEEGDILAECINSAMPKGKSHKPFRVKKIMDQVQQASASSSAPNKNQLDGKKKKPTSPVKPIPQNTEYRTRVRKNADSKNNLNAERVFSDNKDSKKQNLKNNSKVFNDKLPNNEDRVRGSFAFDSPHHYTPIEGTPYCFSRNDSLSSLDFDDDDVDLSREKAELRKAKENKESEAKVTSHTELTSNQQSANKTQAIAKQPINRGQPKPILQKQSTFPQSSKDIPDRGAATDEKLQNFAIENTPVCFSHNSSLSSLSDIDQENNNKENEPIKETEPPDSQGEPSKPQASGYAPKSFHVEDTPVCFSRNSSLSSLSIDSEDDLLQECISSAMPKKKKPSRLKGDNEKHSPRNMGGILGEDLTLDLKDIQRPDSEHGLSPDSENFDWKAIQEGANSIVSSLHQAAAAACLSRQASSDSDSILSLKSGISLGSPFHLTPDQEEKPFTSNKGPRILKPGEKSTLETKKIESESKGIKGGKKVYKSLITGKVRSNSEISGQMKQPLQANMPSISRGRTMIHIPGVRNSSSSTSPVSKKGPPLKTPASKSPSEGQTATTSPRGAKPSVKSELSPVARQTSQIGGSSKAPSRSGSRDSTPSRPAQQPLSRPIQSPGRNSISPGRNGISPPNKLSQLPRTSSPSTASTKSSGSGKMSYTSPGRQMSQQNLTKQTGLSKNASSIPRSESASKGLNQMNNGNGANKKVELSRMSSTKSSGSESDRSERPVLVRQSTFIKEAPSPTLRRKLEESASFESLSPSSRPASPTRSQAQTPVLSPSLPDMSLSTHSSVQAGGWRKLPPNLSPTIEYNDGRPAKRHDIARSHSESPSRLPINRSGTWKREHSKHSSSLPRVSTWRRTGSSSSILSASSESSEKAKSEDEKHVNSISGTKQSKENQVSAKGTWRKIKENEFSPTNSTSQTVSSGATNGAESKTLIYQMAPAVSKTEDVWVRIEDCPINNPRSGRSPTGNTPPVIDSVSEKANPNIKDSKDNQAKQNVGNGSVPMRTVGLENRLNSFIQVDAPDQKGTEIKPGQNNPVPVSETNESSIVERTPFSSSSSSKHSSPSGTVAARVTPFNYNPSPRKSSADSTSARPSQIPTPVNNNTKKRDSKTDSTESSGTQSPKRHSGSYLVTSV
Adenomatosis Polyposis Coli (APC): residues 2-2843 of P25054
APC fragment of amino acids 1464-1604: residues 1464-1604 of P25054
APC fragment of amino acids 1516-1595: residues 1516-1595 of P25054
APC fragment of amino acids 1690-1778: residues 1690-1778 of P25054
APC fragment of amino acids 1995-2083: residues 1995-2083 of P25054
UniProt O70240: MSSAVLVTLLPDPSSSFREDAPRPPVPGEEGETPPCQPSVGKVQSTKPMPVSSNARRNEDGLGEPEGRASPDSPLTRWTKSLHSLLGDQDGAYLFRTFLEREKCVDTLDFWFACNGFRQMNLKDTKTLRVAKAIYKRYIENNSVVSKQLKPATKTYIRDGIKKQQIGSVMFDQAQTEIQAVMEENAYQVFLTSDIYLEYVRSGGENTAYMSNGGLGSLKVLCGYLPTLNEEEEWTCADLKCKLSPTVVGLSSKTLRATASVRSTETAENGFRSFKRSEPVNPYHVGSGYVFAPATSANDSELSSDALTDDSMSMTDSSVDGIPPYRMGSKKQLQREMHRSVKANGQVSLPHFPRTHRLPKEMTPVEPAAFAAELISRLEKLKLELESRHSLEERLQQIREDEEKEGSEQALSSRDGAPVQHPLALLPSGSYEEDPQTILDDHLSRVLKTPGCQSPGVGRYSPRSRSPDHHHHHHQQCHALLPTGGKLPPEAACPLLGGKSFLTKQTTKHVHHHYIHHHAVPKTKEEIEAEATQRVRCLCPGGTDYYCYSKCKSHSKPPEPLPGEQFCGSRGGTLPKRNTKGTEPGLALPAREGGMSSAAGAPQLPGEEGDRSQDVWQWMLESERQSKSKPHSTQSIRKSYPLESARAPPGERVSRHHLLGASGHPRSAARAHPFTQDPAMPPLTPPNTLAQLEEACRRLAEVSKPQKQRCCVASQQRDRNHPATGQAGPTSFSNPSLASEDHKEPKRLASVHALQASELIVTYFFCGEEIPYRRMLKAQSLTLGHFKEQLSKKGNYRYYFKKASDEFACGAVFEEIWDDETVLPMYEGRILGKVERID

Key:
[1] = target: APC fragment of amino acids 1995-2083 (UniProt P25054); assay: yeast 2-hybrid
[2] = target: Adenomatosis Polyposis Coli (APC) (UniProt P25054); assay: yeast 2-hybrid
[3] = target: APC fragment of amino acids 1690-1778 (UniProt P25054); assay: yeast 2-hybrid
[4] = target: APC fragment of amino acids 1516-1595 (UniProt P25054); assay: yeast 2-hybrid, β-galactosidase units
[5] = target: APC fragment of amino acids 1464-1604 (UniProt P25054); assay: yeast 2-hybrid, β-galactosidase units

- binding [1]: binds
- binding [2]: binds
- binding [3]: binds
- binding [4]: binds
- binding [5]: binds
Substance: conductin RGS domain (amino acids 78-200) (from UniProt O70240 78-200)
